Data: US12673073B2, “FasL-engineered biomaterials with immunomodulatory function” (University of Louisville Research Foundation, Inc., priority 2017, dated 2026)
At least one structure is not confirmed: it was looked up by name or label, or the drawing left a doubt.

Tested on: Teff and T-regulatory (Treg) cells
Assay: Immune monitoring of Teff and Treg cells by flow cytometry
Details: rapamycin with unmodified microgels; significance in graft-infiltrating lymphocytes on day 7

CO[C@H]1C[C@@H]2CC[C@@H](C)[C@@](O)(O2)C(=O)C(=O)N2CCCC[C@H]2C(=O)O[C@H]([C@H](C)C[C@@H]2CC[C@@H](O)[C@H](OC)C2)CC(=O)[C@H](C)/C=C(\C)[C@@H](O)[C@@H](OC)C(=O)[C@H](C)C[C@H](C)/C=C/C=C/C=C/1C [rapamycin]
numbers of Treg cells: trend towards increased numbers
